Test results taken from publication PMC5071832.
No constants are given. Whether binding was seen depends on the method and setting. Some binding calls cover weakened binding; strength is not graded here.

Sequences of proteins named here, by UniProt entry; tags and fusion partners are left off. Residues count along the entry.
UniProt P48775, residues 18-389: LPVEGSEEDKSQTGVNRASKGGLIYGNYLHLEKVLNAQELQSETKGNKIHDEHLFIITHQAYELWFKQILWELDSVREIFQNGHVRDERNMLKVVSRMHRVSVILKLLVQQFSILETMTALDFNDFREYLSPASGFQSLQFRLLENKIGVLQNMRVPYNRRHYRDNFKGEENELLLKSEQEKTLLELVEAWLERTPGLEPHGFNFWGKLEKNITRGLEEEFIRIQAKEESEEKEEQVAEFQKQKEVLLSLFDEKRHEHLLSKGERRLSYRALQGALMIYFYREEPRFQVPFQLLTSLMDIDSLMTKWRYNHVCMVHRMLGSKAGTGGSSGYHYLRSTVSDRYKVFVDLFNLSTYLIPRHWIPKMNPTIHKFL

Target: human tryptophan 2,3-dioxygenase (human) (UniProt P48775)
Assay: crystal structure; ferrous hTDO (45 mg/ml) with 10 mM L-Trp, under-oil microbatch, anaerobic, 18 °C; precipitant 50 mM sodium citrate pH 5.6, 5% PEG 3350, 2% Tacsimate pH 5; one crystal mounted anaerobically, one soaked overnight in O2-saturated solution; four subunits (A-D) form the tetramer; both purified

Q: With “human tryptophan 2,3-dioxygenase (from UniProt P48775 18-389) (enzyme)” as the substance, how does the binding read?
A: Its binding is “binds”.
